± gives the standard deviation of the averaged measurements. Most entries show no effect beyond the scatter of the controls.
Experiments:
Assay in all cases: level (log10 ratio to DMSO vehicle control); higher = higher biomarker level / cell amount than vehicle control
[1] = compound: C=CC(=O)OCC(F)(F)C(F)(F)C(F)(F)C(F)(F)C(F)(F)C(F)(F)C(F)(F)C(F)F [1H,1H,9H-Perfluorononyl acrylate]; details: 2200 nM; in DMSO
Protocol: (§1)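 BioMAP Diversity Plus panel of 12 human primary cell co-culture systems (3C, 4H, LPS, SAg, BT, BF4T, BE3C, CASM3C, HDF3CGF, KF3CT, MyoF, Mphg). Compounds were added 1 h before stimulation and left for 24 h (MyoF 48 h; BT 72 h for soluble read-outs or 6 d for IgG). Biomarkers were read by ELISA, cytotoxicity by SRB, PBMC viability and proliferation by Alamar Blue. Each well value was divided by the mean of 8 DMSO control wells on the same plate and log10 transformed; duplicate blinded samples were tested at 4 concentrations.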

[2] = compound: OCC(F)(F)OC(F)(F)C(F)(F)OC(F)(F)C(F)(F)OC(F)(F)CO [1H,1H,11H,11H-Perfluorotetraethylene glycol]; details: 2200 nM; in DMSO
Protocol: as §1

[3] = compound: CCOC(=O)CC(=O)C(F)(F)C(F)(F)F [Ethyl pentafluoropropionyl acetate]; details: 2200 nM; in DMSO
Protocol: as §1

[4] = compound: OCC(F)(F)C(F)(F)C(F)(F)C(F)(F)C(F)(F)C(F)(F)C(F)(F)C(F)(F)CO [1H,1H,10H,10H-Perfluorodecane-1,10-diol]; details: 2200 nM; in DMSO
Protocol: as §1

[5] = compound: O=C(O)C(F)(F)C(F)(F)C(F)(F)C(F)(F)C(F)(F)C(F)(F)C(F)(F)F [Ammonium perfluorooctanoate]; details: 2200 nM; in DMSO
Protocol: as §1

[6] = compound: O=C(CC(=O)C(F)(F)C(F)(F)C(F)(F)F)c1cccs1 [(Perfluorobutyryl)-2-thenoylmethane]; details: 2200 nM; in DMSO
Protocol: as §1

[7] = compound: O=C(O)C(F)(F)OC(F)(F)C(F)(F)OC(F)(F)C(F)(F)OC(F)(F)C(F)(F)C(F)(F)C(F)(F)F [Perfluoro-3,6,9-trioxatridecanoic acid]; details: 2200 nM; in DMSO
Protocol: as §1

[8] = compound: O=C(O)CCC(F)(C(F)(F)F)C(F)(F)F [4,4-bis(Trifluoromethyl)-4-fluoropropanoic acid]; details: 2200 nM; in DMSO
Protocol: as §1

Perfluorooctanoic acid = compound: O=C(O)C(F)(F)C(F)(F)C(F)(F)C(F)(F)C(F)(F)C(F)(F)C(F)(F)F [Perfluorooctanoic acid]; details: 2200 nM; in DMSO
Protocol: as §1

Perfluorononanoic acid = compound: O=C(O)C(F)(F)C(F)(F)C(F)(F)C(F)(F)C(F)(F)C(F)(F)C(F)(F)C(F)(F)F [Perfluorononanoic acid]; details: 2200 nM; in DMSO
Protocol: as §1

Perfluorodecanoic acid = compound: O=C(O)C(F)(F)C(F)(F)C(F)(F)C(F)(F)C(F)(F)C(F)(F)C(F)(F)C(F)(F)C(F)(F)F [Perfluorodecanoic acid]; details: in DMSO
Protocol: as §1

Perfluorooctanamidine = compound: N=C(N)C(F)(F)C(F)(F)C(F)(F)C(F)(F)C(F)(F)C(F)(F)C(F)(F)F [Perfluorooctanamidine]; details: in DMSO
Protocol: as §1

[9] = compound: FC(F)(F)C(F)(F)C(F)(F)C(F)(F)C(F)(F)C(F)(F)C(F)(F)C(F)(F)CCS [2-(Perfluorooctyl)ethanthiol]; details: in DMSO
Protocol: as §1

[10] = compound: O=C(O)C(F)(F)OC(F)(F)C(F)(F)OC(F)(F)F [Perfluoro-3,6-dioxaheptanoic acid]; details: 2200 nM; in DMSO
Protocol: as §1

Test System | level (log10) [1] | level (log10) [2] | level (log10) [3] | level (log10) [4] | level (log10) [5] | level (log10) [6] | level (log10) [7] | level (log10) [8] | level (log10) (Perfluorooctanoic acid) | level (log10) (Perfluorononanoic acid) | level (log10) (Perfluorodecanoic acid; 2200 nM) | level (log10) (Perfluorodecanoic acid; 6700 nM) | level (log10) (Perfluorodecanoic acid; 20000 nM) | level (log10) (Perfluorooctanamidine; 2200 nM) | level (log10) (Perfluorooctanamidine; 6700 nM) | level (log10) (Perfluorooctanamidine; 20000 nM) | level (log10) (Perfluorooctanamidine; 60000 nM) | level (log10) ([9]; 740 nM) | level (log10) ([9]; 2200 nM) | level (log10) [10]
MyoF:MMP-1 | 0.005 ± 0.041 | 0.0135 ± 0.074 | 0.0065 ± 0.087 | 0.0155 ± 0.11 | -0.0025 ± 0.039 | 0.0415 ± 0.053 | 0.032 ± 0.047 | 0.0075 ± 0.029 | 0.0215 ± 0.069 | -0.0565 ± 0.025 | -0.0105 ± 0.019 | -0.0005 ± 0.023 | -0.048 ± 0.0057 | 0.0065 ± 0.073 | -0.025 ± 0.024 | -0.01 | 0.062 | -0.0415 ± 0.067 | -0.047 ± 0.031 | -0.0225 ± 0.047
BF4T:MMP-1 | 0.0155 ± 0.0092 | -0.0055 ± 0.0092 | 0.011 ± 0.041 | 0.0085 ± 0.018 | 0.007 ± 0.016 | -0.02 ± 0.0042 | 0.0085 ± 0.005 | -0.0035 ± 0.019 | 0.007 ± 0.018 | -0.02 ± 0.028 | 0.017 ± 0.023 | -0.0015 ± 0.0035 | -0.201 ± 0.011 | 0.009 ± 0.0071 | 0.015 ± 0.02 | 0.006 ± 0.024 | 0.092 | 0.0085 ± 0.019 | -0.0025 ± 0.0092 | -0.018 ± 0.03
CASM3C:CD106/VCAM-1 | -0.0385 ± 0.0078 | 0.0145 ± 0.0078 | -0.027 ± 0.014 | 0.024 ± 0.013 | -0.019 ± 0.034 | 0.001 ± 0.023 | -0.0065 ± 0.025 | -0.0585 ± 0.067 | -0.0085 ± 0.074 | -0.015 ± 0.0028 | -0.009 ± 0.0042 | 0.0015 ± 0.0092 | -0.036 ± 0.0085 | 0.004 ± 0.052 | -0.0165 ± 0.00071 | -0.0195 ± 0.012 | -0.032 | 0.02 ± 0.028 | -0.0075 ± 0.0035 | 0.044 ± 0.013
3C:Proliferation | -0.064 ± 0.045 | -0.0725 ± 0.052 | -0.0085 ± 0.073 | -0.0925 ± 0.059 | -0.005 ± 0.078 | -0.0135 ± 0.021 | -0.003 ± 0.069 | -0.0005 ± 0.032 | 0.094 ± 0.17 | -0.0035 ± 0.083 | 0.0205 ± 0.00071 | 0.0395 ± 0.032 | 0.0005 ± 0.044 | -0.0475 ± 0.03 | -0.0395 ± 0.018 | -0.054 ± 0.028 | -0.194 | -0.026 ± 0.071 | 0 ± 0.064 | -0.0725 ± 0.035
3C:HLA-DR | -0.0015 ± 0.016 | 0.0035 ± 0.036 | 0.0155 ± 0.018 | -0.001 | 0.0105 ± 0.016 | -0.021 ± 0.02 | -0.0065 ± 0.036 | -0.004 ± 0.027 | 0.003 | -0.0095 ± 0.016 | 0.0085 ± 0.013 | -0.0035 ± 0.0021 | -0.006 ± 0.013 | 0.0215 ± 0.015 | 0.0025 ± 0.016 | -0.0295 ± 0.0064 | -0.035 | -0.013 ± 0.0057 | -0.0075 ± 0.0021 | -0.01 ± 0.0085
BE3C:IL-1alpha | -0.014 ± 0.0042 | 0.016 ± 0.0085 | 0.0065 ± 0.064 | 0.0255 ± 0.0064 | -0.002 ± 0.021 | 0.0035 ± 0.012 | 0.0125 ± 0.012 | 0.011 ± 0.041 | 0.0225 ± 0.021 | -0.0095 ± 0.037 | -0.013 ± 0.0099 | -0.0245 ± 0.00071 | -0.811 ± 0.055 | 0.012 ± 0.02 | 0.0065 ± 0.026 | 0.002 ± 0.0028 | 0.047 | -0.026 ± 0.027 | -0.0185 ± 0.013 | -0.0325 ± 0.05
LPS:CD40 | -0.015 ± 0.031 | -0.0495 ± 0.00071 | 0.008 ± 0.0071 | -0.0055 ± 0.005 | 0.052 ± 0.071 | 0.0035 ± 0.023 | -0.0275 ± 0.067 | 0.056 ± 0.0057 | -0.0025 ± 0.0078 | 0.0135 ± 0.023 | 0.038 ± 0.11 | -0.015 ± 0.16 | -0.0235 ± 0.12 | -0.007 ± 0.021 | -0.0145 ± 0.04 | -0.0525 ± 0.021 | -0.148 | 0.0345 ± 0.03 | 0.0075 ± 0.0092 | -0.005 ± 0.02
SAg:CD62E/E-Selectin | 0.014 ± 0.0014 | -0.009 ± 0.041 | -0.007 ± 0.016 | 0.016 ± 0.0071 | 0.0005 ± 0.016 | -0.0395 ± 0.032 | 0.0015 ± 0.021 | 0.0045 ± 0.0035 | -0.015 ± 0.013 | 0.008 ± 0.018 | -0.0105 ± 0.021 | 0.0005 ± 0.015 | 0.0165 ± 0.023 | 0.0005 ± 0.013 | 0.004 ± 0.0014 | 0.0265 ± 0.00071 | -0.049 | 0.0105 ± 0.0092 | -0.0095 ± 0.0092 | 0.001 ± 0.0057
BF4T:MMP-3 | -0.004 ± 0.041 | 0.026 ± 0.017 | 0.007 ± 0.069 | 0.0135 ± 0.03 | 0.015 ± 0.0057 | -0.044 ± 0.0057 | 0.0285 ± 0.0078 | 0.072 ± 0.027 | 0.0075 ± 0.033 | 0.007 ± 0.035 | 0.005 ± 0.023 | 0.0215 ± 0.023 | -0.14 ± 0.075 | 0.022 ± 0.018 | 0.0035 ± 0.032 | 0.003 ± 0.055 | 0.148 | -0.046 ± 0.03 | -0.029 ± 0.054 | -0.002 ± 0.047
BF4T:uPA | 0.019 ± 0.0085 | 0.008 ± 0.0042 | -0.012 ± 0.021 | -0.007 ± 0.051 | 0.0015 ± 0.0078 | -0.05 ± 0.013 | 0.0105 ± 0.012 | 0.0035 ± 0.019 | -0.0195 ± 0.029 | -0.0235 ± 0.0092 | 0.011 ± 0.017 | 0.015 ± 0.011 | -0.235 ± 0.043 | 0.011 ± 0.016 | -0.0185 ± 0.005 | -0.0225 ± 0.011 | 0.05 | -0.013 ± 0.067 | -0.0445 ± 0.005 | -0.0205 ± 0.025
KF3CT:IL-1alpha | 0.017 ± 0.069 | 0.0295 ± 0.06 | 0.014 ± 0.034 | 0.0225 ± 0.047 | -0.01 ± 0.0099 | 0.0035 ± 0.028 | -0.03 ± 0.027 | -0.045 ± 0.0028 | 0.0035 ± 0.0078 | -0.035 ± 0.076 | -0.018 ± 0.016 | -0.0535 ± 0.0035 | -0.068 ± 0.0042 | -0.0015 ± 0.0078 | -0.005 ± 0.04 | 0.0115 ± 0.011 | 0.03 | -0.0165 ± 0.05 | -0.012 ± 0.03 | -0.0345 ± 0.06
SAg:CD69 | 0.0025 ± 0.029 | -0.005 ± 0.062 | 0.029 ± 0.028 | 0.01 ± 0.03 | -0.0155 ± 0.005 | -0.0275 ± 0.0035 | 0.0045 ± 0.016 | -0.009 ± 0.041 | -0.005 | -0.0215 ± 0.00071 | -0.0235 ± 0.021 | -0.0335 ± 0.015 | -0.062 ± 0.0057 | -0.0105 ± 0.012 | 0.006 ± 0.03 | -0.0035 ± 0.019 | -0.036 | -0.029 ± 0.013 | 0 ± 0.0014 | -0.007 ± 0.0057

Part of the list above, in CSV form:
Test System,level (log10) [1],level (log10) [2],level (log10) [3],level (log10) [4],level (log10) [5],level (log10) [6],level (log10) [7],level (log10) [8],level (log10) (Perfluorooctanoic acid),level (log10) (Perfluorononanoic acid),level (log10) (Perfluorodecanoic acid; 2200 nM),level (log10) (Perfluorodecanoic acid; 6700 nM),level (log10) (Perfluorodecanoic acid; 20000 nM),level (log10) (Perfluorooctanamidine; 2200 nM),level (log10) (Perfluorooctanamidine; 6700 nM),level (log10) (Perfluorooctanamidine; 20000 nM),level (log10) (Perfluorooctanamidine; 60000 nM),level (log10) ([9]; 740 nM),level (log10) ([9]; 2200 nM),level (log10) [10]
CASM3C:CD106/VCAM-1,-0.0385 ± 0.0078,0.0145 ± 0.0078,-0.027 ± 0.014,0.024 ± 0.013,-0.019 ± 0.034,0.001 ± 0.023,-0.0065 ± 0.025,-0.0585 ± 0.067,-0.0085 ± 0.074,-0.015 ± 0.0028,-0.009 ± 0.0042,0.0015 ± 0.0092,-0.036 ± 0.0085,0.004 ± 0.052,-0.0165 ± 0.00071,-0.0195 ± 0.012,-0.032,0.02 ± 0.028,-0.0075 ± 0.0035,0.044 ± 0.013
3C:Proliferation,-0.064 ± 0.045,-0.0725 ± 0.052,-0.0085 ± 0.073,-0.0925 ± 0.059,-0.005 ± 0.078,-0.0135 ± 0.021,-0.003 ± 0.069,-0.0005 ± 0.032,0.094 ± 0.17,-0.0035 ± 0.083,0.0205 ± 0.00071,0.0395 ± 0.032,0.0005 ± 0.044,-0.0475 ± 0.03,-0.0395 ± 0.018,-0.054 ± 0.028,-0.194,-0.026 ± 0.071,0 ± 0.064,-0.0725 ± 0.035
